Record: PubChem BioAssay AID1224826 (NIAID, 2016)
Assay: 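Knock-downs that raise or lower Tnf reporter signal after endotoxin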 (primary screen). System: RAW264.7 G9 macrophages from mouse bearing reporters for p65 (GFP) and the Tnf promoter (mCherry). Reagents: siRNA pool against mouse genes, 100 nM. Time to read-out: 16 h of LPS stimulation, after 2 days of siRNA transfection. Challenge: bacterial lipopolysaccharide (Salmonella minnesota R595), 10 ng/ml. Measurement: 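Nuclear mCherry signal of the Tnf promoter reporter measured by imaging after background removal, scaled to each plate median and turned into robust z-scores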. Scale: Tnf reporter robust z-score: higher = stronger Tnf promoter reporter signal after LPS. Active means: 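Called active when robust z-score is at most -1.3, matching the median of the Tlr4 knock-down control, or over 3; control wells and wells with under 50 cells never active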. Meaning of the calls: active = Tnf reporter clearly lowered or raised; inactive = no clear change in Tnf reporter.
In all, the deposit lists about 17,000 reagents; below is a random part of them. About 1,110 of them (6.6%) were called active. 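Active means lowered or raised reporter signal; replicate intensities are raw and not normalised per plate.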 Entries without a mark were called inactive. Some reagents were tested in more than one well and are listed for each. Further read-outs or replicates are left out here. Reagent sequences are not shown.

With Rad17 (RAD17 checkpoint clamp loader component) [SID315468870], how do the results read?
Tnf reporter robust z-score: 0.93; fewer than 50 cells in well: enough cells in well

Which result is listed for Slc15a3 [SID315472151]?
Tnf reporter robust z-score: 3.22 (active); fewer than 50 cells in well: enough cells in well

For Cdk5 (cyclin dependent kinase 5) [SID315465908], what was measured?
Tnf reporter robust z-score: 1.34; fewer than 50 cells in well: enough cells in well

With Or51f5 (olfactory receptor family 51 subfamily F member 5) [SID315480691], what was measured?
fewer than 50 cells in well: fewer than 50 cells per well; well left out of calls

How did the screen score Aebp2 (AE binding protein 2) [SID315465338]?
Tnf reporter robust z-score: -1.11; fewer than 50 cells in well: enough cells in well

Already shown: an excerpt of the list.
Slc15a3 [SID315472151] — Tnf reporter robust z-score: 3.22 (active); fewer than 50 cells in well: enough cells in well
Cdk5 (cyclin dependent kinase 5) [SID315465908] — Tnf reporter robust z-score: 1.34; fewer than 50 cells in well: enough cells in well

The listing continues:
For Cbx6 (chromobox 6) [SID315481969], what was measured?
Tnf reporter robust z-score: -1.01; fewer than 50 cells in well: enough cells in well

Which result is listed for Cbx6 (chromobox 6) [SID315481969]?
Tnf reporter robust z-score: -0.21; fewer than 50 cells in well: enough cells in well

How did the screen score Acat2 (acetyl-Coenzyme A acetyltransferase 2) [SID315476908]?
Tnf reporter robust z-score: 0.12; fewer than 50 cells in well: enough cells in well

How did the screen score Lsg1 (large 60S subunit nuclear export GTPase 1) [SID315478320]?
Tnf reporter robust z-score: -0.26; fewer than 50 cells in well: enough cells in well

For Polr1d (polymerase (RNA) I polypeptide D) [SID315469028], what was measured?
Tnf reporter robust z-score: -0.23; fewer than 50 cells in well: enough cells in well

Which result is listed for Bco2 (beta-carotene oxygenase 2) [SID315477220]?
Tnf reporter robust z-score: 1.17; fewer than 50 cells in well: enough cells in well

What is on record for Lix1 (limb and CNS expressed 1) [SID315472560]?
Tnf reporter robust z-score: 1.51; fewer than 50 cells in well: enough cells in well
